Data published in article PMC7819943, “Rice protein-binding microarrays: a tool to detect cis-acting elements near promoter regions in rice”.
Some of the results follow.

Protein sequences, listed by entry. Tags and fused reporters are not part of them.
UniProt Q0JBA9, entry or part of it: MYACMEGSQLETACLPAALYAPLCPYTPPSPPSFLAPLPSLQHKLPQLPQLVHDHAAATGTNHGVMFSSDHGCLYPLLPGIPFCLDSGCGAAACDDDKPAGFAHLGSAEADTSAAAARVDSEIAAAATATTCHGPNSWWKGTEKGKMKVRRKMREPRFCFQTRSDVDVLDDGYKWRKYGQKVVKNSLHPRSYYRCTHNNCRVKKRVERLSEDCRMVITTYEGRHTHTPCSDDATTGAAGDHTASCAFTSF

Target: OsWRKY34 (Oryza sativa, UniProt Q0JBA9 1-250)
Experiment: protein-binding microarray (RPBM); PBS, 2% BSA, 51.3 ng/ul salmon testes DNA, 50 uM zinc acetate, 200 nM TF, 25 C, 1 h; high values mean tight binding
Details: protein: recombinant; tags: N-terminal polyhistidine and DsRed monomer fusion (pET32a); label: CyDye5-dUTP incorporated in the synthesized complementary strand; 3' TTTTT single-stranded linker to array surface; dsDNA, one strand shown
Summary of the method: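 Binding signal is reported as fluorescence intensity per feature (arbitrary units) from an Axon 4000B scanner. Incubation used 200 nM of each Ni–NTA-purified, N-terminally polyhistidine- and DsRed-fused transcription factor from E. coli BL21-CodonPlus on a double-stranded custom Agilent array for 1 h at 25 °C, with 50 µM zinc acetate in the buffer, followed by washing.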

| Sequence | binding signal |
| --- | --- |
| CACCTTACCCCGCGCGCTCTCGCCAGTAGTAGTCCACCTCCGGAGTCACCTAGTGCAG | 9660 fluorescence intensity (a.u.) |
| TCAGTTAATTGGTTTGAATCTTCTCTTCTCCTCCGTTTCCCGGAGTCACCTAGTGCAG | 9050 fluorescence intensity (a.u.) |
| CACTTACCCCGCACCACATCGCCACCCAGGTAAACCCCGGCGGAGTCACCTAGTGCAG | 8730 fluorescence intensity (a.u.) |
| TCCAGTATTCCGGTCAGCCTTCATCAATCATCATCCCTTCCGGAGTCACCTAGTGCAG | 9680 fluorescence intensity (a.u.) |
| ATGGATAATAAAGTATTGTTTCATTCTAGTACTTTTTTATCGGAGTCACCTAGTGCAG | 12000 fluorescence intensity (a.u.) |
| TTTTGAGTTTTTCTTACAACGTTTGACCACTCGTCTTATTCGGAGTCACCTAGTGCAG | 8390 fluorescence intensity (a.u.) |
| ATATATTGATTCATACTCCCTCCGTTTCAGTCACTCGGTTCGGAGTCACCTAGTGCAG | 8270 fluorescence intensity (a.u.) |
| GCCGCGCGCCGCCGAGGCCGTCCTCCGCACCCACGACCTCCGGAGTCACCTAGTGCAG | 8600 fluorescence intensity (a.u.) |
| CACTACCCACATCGTCTCGCCGCCGTCGCCGCCGCCGGCGCGGAGTCACCTAGTGCAG | 8780 fluorescence intensity (a.u.) |
| GTGGTGTCAGTTTTTGTGATGGATATTTGTGTGAACTTTTCGGAGTCACCTAGTGCAG | 11300 fluorescence intensity (a.u.) |
| TATACACACCTCGAGTTATGGCCATACCATCACAAGCTGACGGAGTCACCTAGTGCAG | 8270 fluorescence intensity (a.u.) |
| ACACAAGGCTCACCATGCATCAACCTCACGTGGGGTCCAACGGAGTCACCTAGTGCAG | 10100 fluorescence intensity (a.u.) |
| ACCTACCGGTCCAATTTACCTCTTCATGTAAACGTCTACTCGGAGTCACCTAGTGCAG | 8630 fluorescence intensity (a.u.) |
| TATTGTACTCAGACGTTCAATTCCCAAGTTCTTGCACTATCGGAGTCACCTAGTGCAG | 8070 fluorescence intensity (a.u.) |
| AAATAATTTCTATCCTGACGCGACTATAAATCGGACGTCCCGGAGTCACCTAGTGCAG | 8460 fluorescence intensity (a.u.) |
| AGCATCACGTCATCGTCATCGTCTTCAACACGTCCTCGCTCGGAGTCACCTAGTGCAG | 9460 fluorescence intensity (a.u.) |
| ATAAATTGTAGCTTGTGACTTTTCACTAATTCTCACGTATCGGAGTCACCTAGTGCAG | 9250 fluorescence intensity (a.u.) |
| CATTATTATAAGACGCTTGACTTTTTTTTGGTCAAAATCCCGGAGTCACCTAGTGCAG | 8730 fluorescence intensity (a.u.) |
| TCCGCCTCCGCCTCCGCCTCCGCGATCCGCCTCCGCCTCGCGGAGTCACCTAGTGCAG | 9600 fluorescence intensity (a.u.) |
| ATCCATTTCCAGCTTCGTCTTCATCTTGGCTTGGCGCGCTCGGAGTCACCTAGTGCAG | 17800 fluorescence intensity (a.u.) |
| GGCGAAATTTTCTCTACTGCTCGCTTACAATCTCAGTAGTCGGAGTCACCTAGTGCAG | 12300 fluorescence intensity (a.u.) |
| GCCCGTACCCCTCTCCCACCACTCCATCCTGGCCGTCCGACGGAGTCACCTAGTGCAG | 9950 fluorescence intensity (a.u.) |
| AATCTTCTATTTTACACTTTTATTTATGTCAGAATCATATCGGAGTCACCTAGTGCAG | 9380 fluorescence intensity (a.u.) |
| CTGATCATGACTTCCCGATTTGTGTCTCTTCTTTTTTCGCCGGAGTCACCTAGTGCAG | 10600 fluorescence intensity (a.u.) |
| CCGGACAACTCGACCGACCATGGCTCGAGCATCACAACTTCGGAGTCACCTAGTGCAG | 8390 fluorescence intensity (a.u.) |
| AGTTGATCGTGGCGAGGTGTTTTACAATTGTCTCTATCCGCGGAGTCACCTAGTGCAG | 8790 fluorescence intensity (a.u.) |
| GACCCCTGTGATCCCAATTAACCACCCGCCACCGCCACGCCGGAGTCACCTAGTGCAG | 8150 fluorescence intensity (a.u.) |

Looked up one by one from above:

| Sequence | binding signal |
| --- | --- |
| ACCTACCGGTCCAATTTACCTCTTCATGTAAACGTCTACTCGGAGTCACCTAGTGCAG | 8630 fluorescence intensity (a.u.) |
| TCCGCCTCCGCCTCCGCCTCCGCGATCCGCCTCCGCCTCGCGGAGTCACCTAGTGCAG | 9600 fluorescence intensity (a.u.) |
| GCCGCGCGCCGCCGAGGCCGTCCTCCGCACCCACGACCTCCGGAGTCACCTAGTGCAG | 8600 fluorescence intensity (a.u.) |
| CACCTTACCCCGCGCGCTCTCGCCAGTAGTAGTCCACCTCCGGAGTCACCTAGTGCAG | 9660 fluorescence intensity (a.u.) |

Going on with the list.

| Sequence | binding signal |
| --- | --- |
| ACTCCGTGATCACCACATTTTATTCTAGCGAGCATGTGACCGGAGTCACCTAGTGCAG | 8310 fluorescence intensity (a.u.) |
| TTTCTCCATGCGACCATGCCTACTGCATCTTATGTTGGTCCGGAGTCACCTAGTGCAG | 9440 fluorescence intensity (a.u.) |
| GCCACTTCACCACCAGCAGCAGCAGGGGCATCCACCGTACCGGAGTCACCTAGTGCAG | 8250 fluorescence intensity (a.u.) |
| GGATGTGTTGGTAATGCTTTGGATTAAACTTATTGATGACCGGAGTCACCTAGTGCAG | 9030 fluorescence intensity (a.u.) |
| TCTAAGAACATCTTTTCCTTTGGCGTTTTGACCGAATGAGCGGAGTCACCTAGTGCAG | 8060 fluorescence intensity (a.u.) |
| AAGGTTTCCGGGTATGTTTTTTAATCCGTCATCCCACTCACGGAGTCACCTAGTGCAG | 10500 fluorescence intensity (a.u.) |
| TTAGAACAACAAATAATTGTTATGTTAGCGTCTTTTTTTTCGGAGTCACCTAGTGCAG | 8680 fluorescence intensity (a.u.) |
| ATTTCTAGTCATGCCCGATAACCACTCCGGCACGACCACGCGGAGTCACCTAGTGCAG | 8150 fluorescence intensity (a.u.) |
| GTTATTTCTCCAAATATCGGACGCCGCTCACACTCTGCCTCGGAGTCACCTAGTGCAG | 8300 fluorescence intensity (a.u.) |
| ATTTGGTTCCTAGTAGTTTTTTTGTGTTTTGAACCCCAAACGGAGTCACCTAGTGCAG | 9090 fluorescence intensity (a.u.) |
| CTCTCTCTCTCTCTGCAGCTAGGCCATATGCATCTCTCCTCGGAGTCACCTAGTGCAG | 9070 fluorescence intensity (a.u.) |
| GGGTTGATGTGGCATGTTTGTATGTAGGTTGTAGGAGTGCCGGAGTCACCTAGTGCAG | 9330 fluorescence intensity (a.u.) |
| TGTCCAAGCATGCACTTTACATTGCTATCGACTTTTCATCCGGAGTCACCTAGTGCAG | 10100 fluorescence intensity (a.u.) |
| TCAGCCACGACGCCGTCTCCTCCTGCCATGACGCCTTCGTCGGAGTCACCTAGTGCAG | 8390 fluorescence intensity (a.u.) |
| CATATGATATGACCCTCACAGGTACTACTACTATTTTACTCGGAGTCACCTAGTGCAG | 9140 fluorescence intensity (a.u.) |
| GTTTCCTCGCATCTTGCAACATGTTTTGTCCATCTTATTTCGGAGTCACCTAGTGCAG | 15400 fluorescence intensity (a.u.) |
| CGCCGTCCACTCCATCCATCGCGTCACCATCCCTTCGCCGCGGAGTCACCTAGTGCAG | 14600 fluorescence intensity (a.u.) |
| TCTTGCCTTCTCTCCCTGTGGGCACGCCGCCACCGACACCCGGAGTCACCTAGTGCAG | 8140 fluorescence intensity (a.u.) |
| ATAGTCATTTATTTTGTGCTCTCGTATTTTTTTTCTGTTTCGGAGTCACCTAGTGCAG | 9540 fluorescence intensity (a.u.) |
| AGACAAGGCTAGGTACAAGCGGTATATATATATATTTCATCGGAGTCACCTAGTGCAG | 8370 fluorescence intensity (a.u.) |
| CAACACTACCGTAGTCTCAACCTCATTTGATCATTTCTTTCGGAGTCACCTAGTGCAG | 9290 fluorescence intensity (a.u.) |
| GACTATCTCCCTTTCCATCTGCAACAATGTTTTATATATTCGGAGTCACCTAGTGCAG | 9470 fluorescence intensity (a.u.) |
| GATTATGCTGTGGGATCGTTTGTCTTGGGCCGGACCGCTTCGGAGTCACCTAGTGCAG | 9130 fluorescence intensity (a.u.) |
| TGTTTTCCATTTTCCAGGTTTTCCACAGCTGTGCGCCTGTCGGAGTCACCTAGTGCAG | 11000 fluorescence intensity (a.u.) |
| GTTATTTCCACACTTAGTTTACTTTTAAATTAATTTAAACCGGAGTCACCTAGTGCAG | 9320 fluorescence intensity (a.u.) |
| ATTTGTTGTCTAGATCTCTCTTGTATTGTCAAACTGGAAACGGAGTCACCTAGTGCAG | 8740 fluorescence intensity (a.u.) |
| GTTGGTTGGTTGGTTGGTTGGCTTCTTCTCGGTTTGTTCGCGGAGTCACCTAGTGCAG | 25000 fluorescence intensity (a.u.) |
